PubChem BioAssay AID624297 (National Center for Advancing Translational Sciences (NCATS), 2012)
Several values for one entry are separate records, joined by “and”; a condition that tells them apart may be missing. Equal entries are not always repeated. The whole screen tested about 340,000 compounds, of which about 6,200 (1.8%) were called active. Inconclusive means that the source gave no clear call. Such entries were picked first, then a sample of the others. Calls come from the whole dose curve; as a rule, active = well fitted activation curve with a large enough effect; inconclusive = small, poorly fitted or top-dose-only effect; inactive = no such curve, though single readings can be large or run the other way. Potencies beside an inconclusive call are fits to weak or partial responses and may not hold up.

assay: A quantitative high throughput screen for small molecules that induce DNA re-replication in SW480 colon adenocarcinoma cells.; note: nearly all actives have a fitted effect of over 55% in size; for re-replication activation: % of control where 0% means no effect; settings: Hoechst DNA content imaging, 48 h; re-replication activation: at 46.1 µM (top of the series) unless noted
Summary of the method: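 Per well, 250 cells were exposed to pinned compound for 48 hr. Nuclear DNA was visualised with Hoechst (40 min, 37 C) and total object intensity recorded by fluorescence scanning.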
Potency is the fitted concentration of half-maximal effect.

Compound | Potency | re-replication activation
COc1cccc(C(=O)/C=C/c2ccc(N3CCCCC3)c([N+](=O)[O-])c2)c1 | inconclusive: 23.1 µM [activator, single point] | –
CCOc1ccc(CONS(=O)(=O)c2ccc(NC(C)=O)cc2)cc1Cl | inconclusive: 29.1 µM [activator, single point] | –
Cn1nc(C(=O)Nc2ccccc2Cl)cc1C(=O)Nc1ccccc1Cl | – | inactive: 4.11%
COc1ccc(NC(=O)[C@@H]2CC=C[C@@H]3CCN(Cc4ccc(Cl)c(Cl)c4)C(=O)[C@@H]32)cc1 | inconclusive: 3.66 µM [activator, single point] | –
COc1ccc(-n2c(C)nnc2SCC(=O)N2CCOCC2)cc1 | – | inactive: 0.822%
N=c1c(C(=O)NC2CCCC2)cc2c(=O)n3ccccc3nc2n1CC1CCCO1 (stereo not drawn) | inconclusive: 7.31 µM [activator, single point] | –
c1ccc(Cn2cc(CN3CCCCO3)c(-c3ccc4c(c3)OCO4)n2)cc1 | inconclusive: 16.4 µM [activator, single point] | –
COc1cc(C(=O)NCc2nnc(SCC(=O)c3ccccc3)o2)cc(OC)c1OC | inconclusive: 29.1 µM [activator, single point] | –
O=C(NCc1ccccc1Cl)C(=O)NCC1OCCCN1S(=O)(=O)c1cccs1 (stereo not drawn) | inconclusive: 29.1 µM [activator, partial curve, poor fit] | –
COc1ccc(/C=C2\SC(=O)N(CCNC(=O)C3=COCCO3)C2=O)cc1 | active: 10.3 µM | –
CN(C)S(=O)(=O)c1cccc(C(=O)Nc2ccc(Cl)cn2)c1 | – | inactive: 4.37%
Cc1ccc(NC(=S)NCc2ccccc2)cc1S(=O)(=O)N1CCCCC1 | inconclusive: 32.6 µM [activator, single point] | –
CN1C(=O)/C(=C\c2ccc(N(C)C)cc2)OC1=S | inconclusive: 5.17 µM [activator, partial curve, poor fit] | –
CSCCC1NC2(C(=O)Nc3c(C)cc(Cl)cc32)[C@@H]2C(=O)N(C3CCCC3)C(=O)[C@H]12 (stereo partly drawn) | inconclusive: 23.1 µM [activator, single point] | –
Cc1ccccc1C(=O)O/N=C(\N)c1ccccc1 | inconclusive: 13 µM [activator, partial curve] | –
Cc1cccc(NC(=O)c2cc3ccccc3o2)c1 | – | inactive: -5.21%
CC1CCCN(C(=O)COC(=O)c2cc(Br)ccc2O)C1 (stereo not drawn) | – | inactive: 1.05%
CSCCC(NC(=O)COc1ccccc1)C(=O)OCc1ccc(Cl)cc1 (stereo not drawn) | inconclusive: 0.461 µM [activator, full curve, poor fit] | –
CCOC(=O)Cn1c(C(F)(F)F)nc2nc(Cl)c(Cl)nc21 | inconclusive: 29.1 µM [activator, partial curve, poor fit] | –
COc1ccc(CNCC(O)COc2ccc(C(C)(C)c3ccccc3)cc2)cc1 (stereo not drawn) | inconclusive: 18.4 µM [activator, single point] | –
COc1ccc(Cn2c(=O)c3[nH]cnc3n(-c3ccccc3C)c2=O)cc1 | active: 16.4 µM | –
O=C1N/C(=N\N=C\c2cccs2)SC1Cc1ccc(Cl)cc1 (stereo not drawn) | – | inactive: -0.64%
CCC1CCCCN1c1nc(-c2cccc(OC)c2O)nc2ccccc12 (stereo not drawn) | inconclusive: 29.1 µM [activator, single point] | –

Compound | Potency | re-replication activation
Cc1cc(CC(=O)O)c2oc(-c3ccoc3)cc(=O)c2c1 | inconclusive: 7.31 µM [activator, partial curve, poor fit] | –
COC(=O)c1ccccc1NC(=O)CSc1nc(NC(=O)c2ccccc2)c2c(C)c(C)oc2n1 | inconclusive: 29.1 µM [activator, single point] | –
O=C(Nc1ccc(Cl)c(Cl)c1)Nc1ccc(N2CCCC2)c(S(=O)(=O)Nc2ccccc2Cl)c1 | inconclusive: 20.6 µM [activator, partial curve, poor fit] | –
Cc1c(C)n(Cc2ccccc2)c2ccc(C(=O)OCCN(C)C)cc12 | inconclusive: 20.6 µM [activator, single point] and inconclusive: 33.5 µM [activator, partial curve, poor fit] | –
CC1CCCCN1CC(=O)NC(c1ccccc1)c1ccccc1 (stereo not drawn) | inconclusive: 18.4 µM [activator, single point] | –
CCCCCCCCNC(=O)/C(C#N)=C/c1ccc(SC)cc1 | active: 2.06 µM | –
O=[N+]([O-])c1ccc(S(=O)(=O)Nc2ccc3c(c2)OCCO3)cc1 | – | inactive: 0.28%
CC(=O)Nc1c(F)cc(Br)cc1F | inconclusive: 0.103 µM [activator, full curve, poor fit] | –
Cc1ccc(S(=O)(=O)N2CCN(C(=O)COC(=O)COc3ccc(Cl)c(C)c3)CC2)c(C)c1 | inconclusive: 0.206 µM [activator, full curve, poor fit] | –
Cn1c2c(c(=O)n(C)c1=O)C(CC(=O)Nc1ccccc1)C(=O)N2 (stereo not drawn) | – | inactive: -0.903%
Cc1ccc(C(=O)/C=C/C(=O)O)cc1 | inconclusive: 20.6 µM [activator, single point] | –
CC(=O)N1N=C(c2ccc(NS(=O)(=O)c3ccccc3)cc2)CC1c1ccco1 (stereo not drawn) | active: 11.6 µM | –
COC(=O)c1ccc(N(CC(=O)NC2CCCC2)C(=O)c2ccc(C)s2)cc1 | – | inactive: -10.9%
CC(C)CCN1CCN(CC(c2ccccc2)c2ccccc2)CC1CCO (stereo not drawn) | – | inactive: 28%
O=C(CS(=O)c1ccc(C(F)(F)F)cc1[N+](=O)[O-])Oc1ccc(Cl)cc1 (stereo not drawn) | inconclusive: 29.1 µM [activator, single point] | –
CCOc1ccccc1/C=N/Nc1nc(C)cc(=O)[nH]1 | inconclusive: 9.2 µM [activator, partial curve, poor fit] | –
CNC(=O)C(=O)Nc1nc(C23CC4CC(CC(C4)C2)C3)cs1 | inconclusive: 5.17 µM [activator, full curve, poor fit] | –
CCOc1ccccc1NC(=O)c1c(Br)cnn1C | – | inactive: -7.51%
CCc1nc(SCC(=O)N2CCN(c3ccccc3)CC2)c2oc3ccccc3c2n1 | – | inactive: -1.64%
Nc1c(C(=O)Nc2ccc3c(c2)OCCO3)nnn1CCc1ccccc1 | inconclusive: 16.4 µM [activator, single point] | –
COc1ccccc1C1=NN(C(=S)Nc2ccccc2)C(c2ccco2)C1 (stereo not drawn) | inconclusive: 29.1 µM [activator, single point] | –
CCOC(=O)C1=CN(Cc2cccc(F)c2)S(=O)(=O)N(CC)C1c1cccc(OC)c1 (stereo not drawn) | inconclusive: 16.4 µM [activator, single point] | –
CC(=O)c1cc2c(cc1NC(=O)C1CC1)OCO2 | – | inactive: -6.13%

Compound | Potency | re-replication activation
O=C(Cc1ccc(Cl)c(Cl)c1)Nc1cccc(S(=O)(=O)N2CCOCC2)c1 | – | inactive: -5.32%
COc1ccccc1N1C(=O)C=C(Sc2nc(C)cc(C)n2)C1=O | inconclusive: 29.1 µM [activator, single point] | –
Cc1cccc(C)c1NC(=O)C1C2C=CC(C2)C1C(=O)NCc1ccccn1 (stereo not drawn) | inconclusive: 29.1 µM [activator, single point] | –
Cc1cc2c(cc1S(=O)(=O)C(C)CC(=O)NCc1ccco1)OCC(=O)N2 (stereo not drawn) | inconclusive: 16.4 µM [activator, partial curve, poor fit] | –
Nc1nc(-c2ccccn2)nc(N)c1Cc1c(F)cccc1Cl | inconclusive: 7.31 µM [activator, partial curve, poor fit] | –
CCCn1c(SCC(=O)NC(=O)NC(C)(C)C)n[nH]c1=O | – | inactive: -34.1%
Nc1c(C(=O)N/N=C/c2cccnc2)oc2nc(-c3ccco3)cc(-c3ccco3)c12 | inconclusive: 18.4 µM [activator, single point] | –
Clc1nc(CN2CCCCC2)nc2sc3c(c12)CCCC3 | inconclusive: 23.1 µM [activator, single point] | –
N#CC1(c2ccccc2)CCC(NCCc2ccccc2)CC1 (stereo not drawn) | inconclusive: 0.291 µM [activator, full curve, poor fit] | –
CCC1(C)Cc2nc3sc(C(=O)O)c(N)c3cc2CO1 (stereo not drawn) | inconclusive: 29.1 µM [activator, partial curve, poor fit] | –
O=C(NCc1ccccc1)C(Cc1ccccc1)NS(=O)(=O)c1cccc2nsnc12 (stereo not drawn) | inconclusive: 18.4 µM [activator, single point] | –
Oc1[nH]c2ccccc2c1N=Nc1ccccc1Cl | – | inactive: -1.45%
CCOc1ccc2nc(SC3CC(=O)N(c4ccc(C)cc4)C3=O)sc2c1 (stereo not drawn) | inconclusive: 20.6 µM [activator, single point] | –
COc1cc(C(C(=O)NCC2CCCO2)N(C(=O)Cn2nnc3ccccc32)c2ccc(OC)c(OC)c2)ccc1O (stereo not drawn) | inconclusive: 1.46 µM [activator, partial curve, poor fit] | –
CCN(c1nc(N)c(C(=O)N=C(N)N)nc1Cl)C(C)C | inconclusive: 20 µM [activator, single point] | –
N#C/C(=C\c1cccnc1)C(=O)Nc1ccc(O)cc1F | – | inactive: -2.24%
CC(=O)Nc1c2c(nn1-c1cccc(C)c1)CSC2 | – | inconclusive: -25% [activator]
COc1ccc(S(=O)(=O)N2CCCCC2)cc1NC(=O)Cn1cnc2ccccc2c1=O | inconclusive: 0.651 µM [activator, full curve, poor fit] | –
CN(C)c1nc(Cl)nc(N(C#N)CCOc2ccccc2)n1 | inconclusive: 29.1 µM [activator, single point] | –
Nc1ccc(-c2cn3cccnc3n2)cc1 | inconclusive: 0.146 µM [activator, full curve, poor fit] | –
C=CCNC(=S)N/N=C/c1cn(-c2ccccc2)nc1-c1ccc(OC)cc1 | – | inactive: 0.942%
C=CCOc1ccc(C2C(C#N)=C(N)N(Nc3ccccc3)C3=C2C(=O)CC(C)(C)C3)cc1OC (stereo not drawn) | inconclusive: 25.9 µM [activator, partial curve, poor fit] | –

3 entries out of the list, arranged by molecular weight, falling.
Compound | Potency | re-replication activation
COc1ccc(S(=O)(=O)N2CCCCC2)cc1NC(=O)Cn1cnc2ccccc2c1=O | inconclusive: 0.651 µM [activator, full curve, poor fit] | –
O=C(NCc1ccccc1)C(Cc1ccccc1)NS(=O)(=O)c1cccc2nsnc12 (stereo not drawn) | inconclusive: 18.4 µM [activator, single point] | –
Clc1nc(CN2CCCCC2)nc2sc3c(c12)CCCC3 | inconclusive: 23.1 µM [activator, single point] | –
